Our source for the binding values is paper PMC7586679.

By UniProt entry, the sequences of proteins in these tests, tags left out.
UniProt O43791: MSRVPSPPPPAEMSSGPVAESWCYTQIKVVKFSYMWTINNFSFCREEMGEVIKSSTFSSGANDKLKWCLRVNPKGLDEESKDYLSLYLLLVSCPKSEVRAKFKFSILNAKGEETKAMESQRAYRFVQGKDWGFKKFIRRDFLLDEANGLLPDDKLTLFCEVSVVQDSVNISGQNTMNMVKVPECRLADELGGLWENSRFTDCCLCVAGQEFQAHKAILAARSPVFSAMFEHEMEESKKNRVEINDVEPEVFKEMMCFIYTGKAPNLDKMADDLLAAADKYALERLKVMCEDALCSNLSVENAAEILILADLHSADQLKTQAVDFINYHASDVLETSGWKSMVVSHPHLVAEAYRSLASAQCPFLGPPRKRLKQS

This assay concerns the target HA-tagged SPOP (WT) (UniProt O43791). As to the kind of experiment: co-IP; 293T cells transfected 24 h with SPOP WT and FLAG-c-Myc or ΔSBC1/ΔSBC2; Bortezomib (250 nM) for 6 h; total cell lysates; IP with anti-FLAG or anti-SPOP antibodies.

These are yes or no findings as the source states them, for the method shown. Binding seen in cells or lysates may run through a third protein. Binding can be weak; no strength is given.

As for “FLAG-c-Myc mutated at SBC1 (ΔSBC1) (from UniProt P01106-2)”, the binding entry was “no binding”.
For the substance “FLAG-c-Myc mutated at SBC2 (ΔSBC2) (from UniProt P01106-2)”, the binding entry was “binds weakly”.
